Reference: PMC6152987
Results are given in words; binding and its absence hold for the method and conditions named. In cells and extracts the contact can be indirect. A result given as binding can be weak or reduced; the word gives no strength.

Sequences of proteins named here, by UniProt entry; tags and fusion partners are left off. A change or cut given only in a name is not applied to a line headed by its entry.
UniProt Q01371: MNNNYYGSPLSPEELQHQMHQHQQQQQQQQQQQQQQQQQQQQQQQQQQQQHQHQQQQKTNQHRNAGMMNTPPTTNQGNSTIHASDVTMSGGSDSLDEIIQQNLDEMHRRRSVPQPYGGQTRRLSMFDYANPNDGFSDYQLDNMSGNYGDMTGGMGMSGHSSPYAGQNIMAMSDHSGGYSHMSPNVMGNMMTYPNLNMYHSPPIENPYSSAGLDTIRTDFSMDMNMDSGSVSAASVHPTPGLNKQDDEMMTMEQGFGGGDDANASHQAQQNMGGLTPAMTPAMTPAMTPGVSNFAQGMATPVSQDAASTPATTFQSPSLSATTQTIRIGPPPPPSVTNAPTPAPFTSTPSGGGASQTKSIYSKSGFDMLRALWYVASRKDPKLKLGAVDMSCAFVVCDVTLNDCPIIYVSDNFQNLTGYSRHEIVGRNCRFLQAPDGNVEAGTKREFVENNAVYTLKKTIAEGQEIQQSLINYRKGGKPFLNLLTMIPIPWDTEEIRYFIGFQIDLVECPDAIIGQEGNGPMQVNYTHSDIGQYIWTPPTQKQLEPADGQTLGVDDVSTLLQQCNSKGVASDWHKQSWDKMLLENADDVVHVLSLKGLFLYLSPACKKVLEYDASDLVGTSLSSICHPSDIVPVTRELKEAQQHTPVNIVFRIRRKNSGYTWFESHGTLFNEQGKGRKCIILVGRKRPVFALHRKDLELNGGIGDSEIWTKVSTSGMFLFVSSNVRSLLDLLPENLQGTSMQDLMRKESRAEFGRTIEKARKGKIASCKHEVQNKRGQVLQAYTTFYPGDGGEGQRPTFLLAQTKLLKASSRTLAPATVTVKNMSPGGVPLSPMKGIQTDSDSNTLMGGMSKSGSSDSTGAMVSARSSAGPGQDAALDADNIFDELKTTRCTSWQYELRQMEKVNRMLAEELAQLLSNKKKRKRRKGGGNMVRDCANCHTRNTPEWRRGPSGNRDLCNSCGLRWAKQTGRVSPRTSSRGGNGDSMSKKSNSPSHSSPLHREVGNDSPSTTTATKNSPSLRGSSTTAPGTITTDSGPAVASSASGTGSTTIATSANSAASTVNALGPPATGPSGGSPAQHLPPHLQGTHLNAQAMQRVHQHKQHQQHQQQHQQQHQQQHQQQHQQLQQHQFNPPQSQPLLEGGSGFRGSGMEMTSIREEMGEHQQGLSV
UniProt U9W3H0: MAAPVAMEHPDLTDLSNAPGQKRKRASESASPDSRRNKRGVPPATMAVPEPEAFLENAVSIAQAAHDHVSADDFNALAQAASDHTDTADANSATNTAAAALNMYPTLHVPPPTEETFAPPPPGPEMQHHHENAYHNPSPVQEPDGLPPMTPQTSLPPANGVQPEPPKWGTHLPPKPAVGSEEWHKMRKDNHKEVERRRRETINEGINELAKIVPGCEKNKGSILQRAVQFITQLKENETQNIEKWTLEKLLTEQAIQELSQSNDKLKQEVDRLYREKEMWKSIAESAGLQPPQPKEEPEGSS

Assays:
[1] = target: T1, WHITE COLLAR 2 (WC-2) (Neurospora crassa) (UniProt P78714); assay: co-IP; immunoprecipitation from N. crassa protein extracts with WC-1 antiserum or WC-2 antiserum; pre-immune serum as the negative control; 'in vivo'
T1 sequence: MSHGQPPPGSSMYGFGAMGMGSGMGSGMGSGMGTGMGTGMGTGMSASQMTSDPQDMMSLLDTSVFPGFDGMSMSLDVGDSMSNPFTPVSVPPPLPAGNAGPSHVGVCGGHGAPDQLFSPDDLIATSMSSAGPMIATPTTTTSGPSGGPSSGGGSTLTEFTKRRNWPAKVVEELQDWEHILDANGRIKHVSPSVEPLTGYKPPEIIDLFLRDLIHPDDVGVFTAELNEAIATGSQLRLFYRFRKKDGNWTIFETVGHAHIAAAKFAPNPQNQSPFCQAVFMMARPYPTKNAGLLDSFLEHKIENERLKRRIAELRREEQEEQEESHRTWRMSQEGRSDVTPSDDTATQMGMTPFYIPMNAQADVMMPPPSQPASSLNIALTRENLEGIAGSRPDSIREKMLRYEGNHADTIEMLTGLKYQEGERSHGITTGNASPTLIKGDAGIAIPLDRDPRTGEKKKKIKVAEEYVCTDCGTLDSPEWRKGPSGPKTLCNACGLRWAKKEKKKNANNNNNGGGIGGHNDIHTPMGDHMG

[2] = target: WHITE COLLAR 1 (WC-1) (Neurospora crassa) (UniProt Q01371); assay: as above

binding [1]: binds | binding [2]: binds
Substance: Centromere Binding Factor 1 (CBF-1) (from UniProt U9W3H0)
